From PubChem BioAssay record AID912 (NCATS, 2007).

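Uptake of anthrax lethal toxin into cultured cells, read by FRET (460/530 nm ratio) and reported from the 460 nm channel; the cell line is not named here. Each compound was tested as a concentration series from about 0.0005 to 40 µM. The number is the fitted AC50 of the 460 nm signal alone; lower values mean a more potent effect. A falling signal goes with compounds filed as inhibitors or cytotoxic, a rising one with activators or fluorescent compounds (inferred from the filed classes).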

Values are in µM. Common to all entries: measured here: 460 nm channel. This is a side read-out of the assay, for part of the compounds, not drawn at random. A potency from a partial, single-point or poor curve is only a rough figure. The first word of each remark tells which way the curve ran; it can be opposite to the aim of the assay.

SMILES	AC50 (µM)	curve as filed
CC1=C(C(=O)OCC2CCCO2)C(c2ccccc2OC(C)C)C2=C(CC(c3ccco3)CC2=O)N1 (stereo not given)	12.59	rising, partial curve
Cc1ccc(C)c(S(=O)(=O)Nc2ccccc2C(=O)Nc2cc(C)on2)c1	15.85	falling, single point
Clc1ccc(C(c2ccccc2Cl)C(Cl)Cl)cc1 (stereo not given)	12.59	falling, partial curve
CC(C)(C)c1cc(CN2CCCC(O)C2)c(O)c(C(C)(C)C)c1 (stereo not given)	31.62	falling, partial curve
CN(CCNC(=O)c1cc2c(=O)n(C)c3ccccc3c2n1C)Cc1ccccc1	3.981	falling, full curve
O=C(COc1ccc(S(=O)(=O)N2CCCC2)cc1Cl)NC1CC1	25.12	rising, single point
Cc1c(C(=O)OC2CCCC2)[nH]c2c1C(=O)CC(c1ccco1)C2 (stereo not given)	0.5012	falling, full curve
N[C@@H](Cn1cc(I)c(=O)[nH]c1=O)C(=O)O	6.31	falling, full curve
O=C(CCn1c(=O)sc2ccccc21)NC1=NCCS1	5.012	rising, single point
Cc1cccc(-c2noc(CCc3ccccc3)n2)c1	6.31	falling, partial curve
Cc1c(C)n(C)c2ccc(C(=O)NCc3cccs3)cc12	10	falling, partial curve
CC(Oc1ccc(Cl)cc1Cl)C(=O)Nc1ccncc1 (stereo not given)	10	falling, partial curve
COC(=O)[C@@]1(Cc2ccc(OC)cc2)[C@H]2c3cc(C(=O)N(C)C)n(C[C@H](O)CO)c3C[C@H]2CN1C(=O)c1ccccc1	0.01585	falling, full curve, poor fit
CSc1ccn(CCC(=O)O)c(=O)n1	0.003162	falling, full curve, poor fit
COC(=O)[C@H](Cc1ccccc1)NC(=O)NCC1CCCO1 (stereo not given in full)	10	rising, single point
COc1ccccc1OCC(O)Cn1c(=N)n(CCN2CCCCC2)c2ccccc21 (stereo not given)	1.585	falling, full curve
COc1ccc(-c2nc3cnc(N(C)C)nc3n(Cc3cccs3)c2=O)cc1	10	rising, partial curve
Cn1c(NCCCN2CCOCC2)nc2c1c(=O)n(Cc1ccc(Cl)c(Cl)c1)c(=O)n2C	7.943	falling, partial curve, poor fit
FC(F)Sc1ccc(Nc2ncnc3nc[nH]c23)cc1	6.31	falling, partial curve
CC(=O)N1CCN(S(=O)(=O)c2cccc(C(=O)Nc3nc4ccccc4[nH]3)c2)CC1	12.59	rising, single point
CCOC(=O)c1[nH]c2ccc(OCC)cc2c1NC(=O)CN1CCN(c2ccccn2)CC1	5.012	rising, single point
CCCCCn1c(N2CCN(Cc3ccccc3)CC2)nc2c1c(=O)[nH]c(=O)n2C	0.1259	rising, full curve
CCc1ccc(NC2=NCC(=O)N2Cc2ccc3c(c2)OCO3)cc1	10	falling, partial curve
COc1ccc(C(C)(C)C)cc1NC(=O)COC(=O)c1cnc(C)cn1	2.512	falling, single point
CC[C@](N)(C(=O)O)C(C)C	0.7943	falling, single point
Cc1cc(C(=O)CSc2nncs2)c(C)n1-c1ccc2c(c1)OCO2	31.62	rising, single point
COc1cccc(Cn2c(=O)c(-c3cn(C)c4ccccc34)nc3cnc(N4CCOCC4)nc32)c1	12.59	rising, partial curve
CC(C)Nc1ccccc1	3.981	falling, full curve
O=S(=O)(c1ccccc1)N1CCC2(CCN(Cc3ccccc3)CC2)CC1	31.62	rising, single point
O=C(OCc1nc2ccccc2s1)c1cccs1	0.07943	rising, full curve
COc1ccc(CNc2ncnc3ccc(-c4ccccc4OC)cc23)c(OC)c1	31.62	falling, single point
CCCCn1c(C)nc2c(=O)n(C)c(=O)[nH]c21	1.995	falling, single point
CCCCCCCCCCCCCCC[C@@H](O)[C@@H](N)CO	10	falling, single point
Cc1cccc(OCC(=O)OCC(=O)c2c(N)n(C)c(=O)n(C)c2=O)c1	10	rising, single point
COc1ccc(OC)c(NC2c3ccccc3C(=O)N2c2cccnc2)c1 (stereo not given)	10	rising, single point
O=C(CSc1nnnn1C1CCCCC1)Nc1nc2c(s1)CCCC2	2.512	falling, full curve, poor fit
Cc1ccc2[nH]c3c(=O)n(CCN4CCNCC4)cnc3c2c1	0.631	falling, full curve
CCCCCCCCOC(=O)c1ccccc1C(=O)OCCCCCCCC	10	falling, full curve
O=C1CC(Sc2nnc(-c3ccccc3O)o2)C(=O)N1c1ccccc1 (stereo not given)	0.01585	falling, partial curve, poor fit
OCCN1CCN(CCC=C2c3ccccc3Sc3ccc(Cl)cc32)CC1	0.2512	rising, full curve, poor fit
Cn1c(C(=O)NCCCN2CCOCC2)cc2c(=O)n(C)c3ccccc3c21	12.59	falling, single point
COc1cccc(N2CCN(C(=O)c3ccc4nc(N5CCCCC5)sc4c3)CC2)c1	12.59	falling, single point
COc1ccc(C(=O)N2CCC3(CCN(Cc4ccc(C#N)cc4)CC3)CC2)cc1	0.05012	falling, partial curve, poor fit
Nc1ccc(SC(F)(F)F)cc1C(=O)c1ccccc1	31.62	falling, single point
Cc1oc2cc3c(C(=O)N4CCCCC4)c(C)oc3cc2c1C(=O)N1CCCCC1	0.3162	rising, partial curve, poor fit
Cc1[nH]c2ccccc2c1C(=O)COC(=O)C1CC(=O)N(Cc2ccco2)C1 (stereo not given)	1.259	falling, partial curve
O=C(N/N=C\c1ccccc1O)c1ccccc1O	0.01585	rising, partial curve, poor fit
O=C1c2c(O)ccc([N+](=O)[O-])c2C(=O)c2c([N+](=O)[O-])ccc(O)c21	12.59	falling, partial curve
COc1ccc(NC(=O)c2cc3ccccc3o2)cc1	10	falling, partial curve
Nc1nonc1-c1noc(CCCOc2ccc(Cl)cc2Cl)n1	2.512	falling, full curve